The values below come from PMC5730846.

In the assay the target is T1, Tsc1 (hamartin) (human (endogenous in HEK293)) (UniProt Q92574).
T1 sequence: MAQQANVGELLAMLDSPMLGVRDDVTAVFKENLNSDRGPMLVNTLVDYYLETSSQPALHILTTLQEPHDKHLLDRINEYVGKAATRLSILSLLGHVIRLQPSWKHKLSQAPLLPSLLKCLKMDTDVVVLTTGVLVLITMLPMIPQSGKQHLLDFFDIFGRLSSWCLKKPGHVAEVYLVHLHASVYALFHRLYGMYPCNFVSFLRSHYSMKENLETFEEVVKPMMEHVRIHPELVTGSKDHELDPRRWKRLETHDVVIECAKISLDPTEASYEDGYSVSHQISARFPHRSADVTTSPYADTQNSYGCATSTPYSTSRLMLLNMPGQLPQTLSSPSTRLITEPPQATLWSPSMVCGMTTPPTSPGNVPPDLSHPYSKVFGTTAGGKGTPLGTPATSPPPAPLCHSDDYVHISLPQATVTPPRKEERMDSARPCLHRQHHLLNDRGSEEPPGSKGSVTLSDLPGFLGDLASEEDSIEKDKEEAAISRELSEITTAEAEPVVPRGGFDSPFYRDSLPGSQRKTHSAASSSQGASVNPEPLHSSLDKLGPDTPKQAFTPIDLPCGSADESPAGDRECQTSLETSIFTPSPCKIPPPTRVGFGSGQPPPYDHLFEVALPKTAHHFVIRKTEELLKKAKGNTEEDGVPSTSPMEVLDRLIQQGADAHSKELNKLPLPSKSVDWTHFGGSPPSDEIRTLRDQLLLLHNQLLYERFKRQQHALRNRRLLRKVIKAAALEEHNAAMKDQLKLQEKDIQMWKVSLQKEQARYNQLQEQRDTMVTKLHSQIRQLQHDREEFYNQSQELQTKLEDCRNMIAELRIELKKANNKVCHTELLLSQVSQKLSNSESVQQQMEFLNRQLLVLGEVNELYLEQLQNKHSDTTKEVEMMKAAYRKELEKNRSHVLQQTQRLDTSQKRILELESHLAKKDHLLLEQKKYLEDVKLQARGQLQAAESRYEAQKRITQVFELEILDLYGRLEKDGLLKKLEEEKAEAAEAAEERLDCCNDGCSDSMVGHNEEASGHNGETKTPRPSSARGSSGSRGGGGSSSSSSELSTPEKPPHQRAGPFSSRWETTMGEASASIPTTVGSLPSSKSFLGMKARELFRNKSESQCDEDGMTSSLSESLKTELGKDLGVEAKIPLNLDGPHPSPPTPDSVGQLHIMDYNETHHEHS
The experiment in a line: co-IP; endogenous Tsc1 immunoprecipitated from HEK293 lysate with anti-Tsc1 antibody (IgG control); immunoblot. In general terms: Immunoblotting shows a protein as a band on a membrane.

Results are given in words; binding and its absence hold for the method and conditions named. In cells and extracts the contact can be indirect. Binding can be weak; no strength is given.

Regarding Akt (human (endogenous in HEK293)), the binding result is given as “binds”.
On to Hsp70 (human (endogenous in HEK293)), for which the binding entry is listed as “binds”.
